Test system: rat gingival epithelial cells (GEC)
Experiment: Mass spectrometry differential profiling of degradation products of gingival epithelial cells treated with purified gingipains
Settings: 37° C. 1 hr, MALDI-TOF

In the case of “TKVMDVHDGKVVSTHEQVLR (MOD_RES (4)..(4) Methionine residue may be oxidized.; listed as Homo sapiens) [peptide 3]”, the “Peak intensity ratio relative to control (enzyme-free group)” value (RgpB treatment) is reported as 1.4.

In the case of “YEELQQTAGRHGDDLRNTK (listed as Homo sapiens) [peptide 2]”, the “Peak intensity ratio relative to control (enzyme-free group)” value (Kgp treatment) is reported as 14.9.

TKVMDVHDGKVVSTHEQVLR + (O) [peptide 4] was tested, and the “Peak intensity ratio relative to control (enzyme-free group)” value (RgpB treatment) was 23.5.

With “YEELQITAGRHGDDLRNTK (listed as Homo sapiens) [peptide 1]” the “Peak intensity ratio relative to control (enzyme-free group)” value (Kgp treatment) was 11.6.

Source: US10627412B2, “Periodontal-disease-specific peptide, and treatment and diagnosis of periodontal disease using same” (KAGOSHIMA UNIVERSITY, priority 2010, dated 2020)
